Record: PubChem BioAssay AID1671195 (Yale University, 2021)

- Screen: 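Genes whose knockdown alters LDL uptake in liver cancer cells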 (primary screen)
- System: human Huh7 hepatoma cells
- Reagent: siRNA pool against human genes, 18 nM
- Timing: about 2 to 2.5 days of knockdown, then 8 h LDL uptake
- Challenge: DiI-labelled LDL at 30 µg/ml for 8 h, in lipoprotein-deficient serum medium
- Read-out: 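Fluorescent LDL signal imaged in cells, scaled to the plate median, robust z-score for each replicate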
- Scale: robust z-score: higher = more LDL uptake after knockdown
- Hit rule: 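Active when two or more replicates show a robust z-score above 2 or below -2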
The deposit covers about 22,000 reagents; shown is a random part of them. About 1,510 of them (6.9%) count as active. 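Active includes knockdowns raising or lowering LDL uptake; positive z-scores mean more uptake, negative mean less.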 Unmarked entries are inactive.

| gene | PubChem SID | robust z-score, replicate 1 | robust z-score, replicate 2 | robust z-score, replicate 3 |
| --- | --- | --- | --- | --- |
| RLN1 (GeneID 6013) | SID442894927 | -0.375 | -0.0819 | 0.112 |
| UBE2NL (GeneID 389898) | SID442883696 | 2.32 (active) | 2.77 | 2.24 |
| HPS6 (GeneID 79803) | SID442901361 | -0.811 | -0.784 | -1.07 |
| ZNF234 (GeneID 10780) | SID442893347 | 0.0862 | -0.349 | 0.447 |
| BRWD3 (GeneID 254065) | SID442889163 | 0.411 | 0.764 | 0.633 |
| WNK2 (GeneID 65268) | SID442895099 | 0.109 | -0.888 | 0.38 |
| LHX2 (GeneID 9355) | SID442895398 | -0.56 | 0.573 | -0.509 |
| CFAP97D1 (GeneID 284067) | SID442897707 | -0.48 | -0.249 | -0.517 |
| C9orf163 (GeneID 158055) | SID442894178 | 0.231 | -0.084 | -0.253 |
| PNLDC1 (GeneID 154197) | SID442904550 | -1.47 | -1.91 | -1.74 |
| TMC6 (GeneID 11322) | SID442898400 | -0.389 | -0.975 | -0.119 |
| APOM (GeneID 55937) | SID442892833 | 1.39 | -0.395 | -0.639 |
| APH1A (GeneID 51107) | SID442887451 | 0.663 | 1.37 | 0.703 |
| RBBP8NL (GeneID 140893) | SID442900937 | -0.814 | -0.727 | -0.946 |
| MED21 (GeneID 9412) | SID442902587 | -1 | -1.16 | -1.16 |
| LOC441770 (retired record) (GeneID 441770) | SID442893215 | -0.289 | 0.148 | 0.368 |
| ZNF582 (GeneID 147948) | SID442892325 | 0.275 | 0.0238 | 0.245 |
| MAP2K6 (GeneID 5608) | SID442887418 | 1.23 | 0.509 | 1.01 |
| TDRD10 (GeneID 126668) | SID442891088 | 1.26 | 0.269 | -0.528 |
| SNTG2 (GeneID 54221) | SID442887873 | 0.374 | 1.11 | 0.995 |
| PCDH19 (GeneID 57526) | SID442904735 | -1.85 | -1.72 | -1.99 |
| ADCY3 (GeneID 109) | SID442886653 | 1.08 | 0.62 | 1.59 |
| KRT86 (GeneID 3892) | SID442889898 | 1.18 | 0.00999 | 0.29 |
| IPMK (GeneID 253430) | SID442895316 | -0.491 | -0.443 | 0.462 |
| ACTE1P (GeneID 399923) | SID442902453 | -0.688 | -1.07 | -1.48 |
| LOC389628 (retired record) (GeneID 389628) | SID442904608 | -1.6 | -1.79 | -1.85 |
| ZNF319 (GeneID 57567) | SID442883108 | 5.85 (active) | 6.3 | 5.96 |
| JPH4 (GeneID 84502) | SID442895064 | 0.459 | -0.383 | -0.465 |
| ZNF469 (GeneID 84627) | SID442892662 | -0.32 | 0.651 | 0.0877 |
| CSPG4P5 (GeneID 114817) | SID442904321 | -0.891 | -2.25 | -1.62 |
| ASNSP1 (GeneID 389652) | SID442883413 | 2.5 (active) | 3.14 | 3.3 |
| SLC22A17 (GeneID 51310) | SID442899749 | -0.12 | -0.859 | -1.01 |
| OR4C16 (GeneID 219428) | SID442889239 | 0.384 | 0.473 | 0.913 |
| NUDT1 (GeneID 4521) | SID442892462 | 0.0661 | 0.0331 | 0.394 |
| SHOC1 (GeneID 158401) | SID442894033 | 0.298 | -0.236 | -0.118 |
| LOC442004 (retired record) (GeneID 442004) | SID442899149 | -0.73 | -0.582 | -0.44 |
| STK24 (GeneID 8428) | SID442899694 | -0.149 | -0.96 | -0.86 |
| FGF20 (GeneID 26281) | SID442884404 | -2.21 (active) | -2 | -1.99 |
| ASPN (GeneID 54829) | SID442902090 | -1.12 | -1.43 | -0.476 |
| ERCC6L2-AS1 (GeneID 100128782) | SID442900756 | -0.681 | -0.79 | -0.937 |
| ADCY1 (GeneID 107) | SID442900977 | -0.424 | -0.921 | -1.16 |
| FBLIM1 (GeneID 54751) | SID442903153 | -1.34 | -0.551 | -1.79 |
| EEF2K (GeneID 29904) | SID442896197 | -0.412 | -0.358 | 0.0266 |
| WDR59 (GeneID 79726) | SID442885397 | 0.804 | 1.7 | 2.08 |
| ABCD2 (GeneID 225) | SID442893246 | -0.112 | 0.186 | 0.143 |
| RTL4 (GeneID 340595) | SID442902143 | -1.21 | -0.99 | -0.861 |
| H4C16 (GeneID 121504) | SID442889117 | 1.07 | 0.97 | -0.211 |
| LOC344172 (retired record) (GeneID 344172) | SID442891374 | 0.408 | 0.271 | 0.203 |
| TRAM1L1 (GeneID 133022) | SID442893719 | -0.114 | 0.00893 | 0.161 |
| EGR3 (GeneID 1960) | SID442898367 | -0.78 | -0.112 | -0.58 |
| LOC441542 (retired record) (GeneID 441542) | SID442889591 | 0.796 | 0.67 | 0.143 |
| OR8D4 (GeneID 338662) | SID442899172 | -0.862 | -0.599 | -0.299 |
| LOC401101 (retired record) (GeneID 401101) | SID442895997 | -0.0552 | -0.381 | -0.246 |
| HOXB7 (GeneID 3217) | SID442899082 | -0.692 | -0.701 | -0.331 |
| LOC440096 (retired record) (GeneID 440096) | SID442885636 | 1.07 | 1.88 | 1.33 |
| SLC12A3 (GeneID 6559) | SID442897280 | -0.867 | 0.303 | -0.539 |
| ZNF112 (GeneID 7771) | SID442892289 | -0.373 | 0.801 | 0.13 |
| TGFA (GeneID 7039) | SID442893897 | 0.118 | -0.0467 | -0.0759 |
| DLD (GeneID 1738) | SID442902029 | -1.11 | -0.974 | -0.916 |
| THEM5 (GeneID 284486) | SID442898244 | -0.629 | -0.346 | -0.456 |
| LOC392179 (retired record) (GeneID 392179) | SID442904428 | -1.36 | -1.86 | -1.7 |
| RHD (GeneID 6007) | SID442883912 | 1.41 (active) | 3.04 | 2.03 |
| DNAAF4 (GeneID 161582) | SID442899550 | -0.534 | -0.561 | -0.81 |
| AKAP17A (GeneID 8227) | SID442899928 | -0.572 | -1.2 | -0.288 |
| KLHL28 (GeneID 54813) | SID442901527 | -1.23 | -1.57 | 0.0667 |
| TMEM105 (GeneID 284186) | SID442889004 | 0.377 | 0.403 | 1.1 |
| RPL12P17 (GeneID 344471) | SID442884558 | -2.64 (active) | -2.46 | -2.37 |
| LINC00656 (GeneID 200261) | SID442889262 | 0.295 | 0.974 | 0.49 |

Only “robust z-score, replicate 3” (9 entries from above):
HPS6 (GeneID 79803) [SID442901361]	-1.07
ZNF234 (GeneID 10780) [SID442893347]	0.447
BRWD3 (GeneID 254065) [SID442889163]	0.633
WNK2 (GeneID 65268) [SID442895099]	0.38
LHX2 (GeneID 9355) [SID442895398]	-0.509
CFAP97D1 (GeneID 284067) [SID442897707]	-0.517
C9orf163 (GeneID 158055) [SID442894178]	-0.253
PNLDC1 (GeneID 154197) [SID442904550]	-1.74
TMC6 (GeneID 11322) [SID442898400]	-0.119
